The values that follow come from PubChem BioAssay AID248 (DTP/NCI, 2004).

This assay deals with L1210 leukemia ip in BDF1 mice, survival T/C. The assay can be described thus: NCI In Vivo Anticancer Drug Screen. Data for tumor model L1210 Leukemia (intraperitoneal) in B6D2F1 (BDF1) mice. The conditions noted are these: T/C endpoint: mean survival time, higher T/C = longer survival.
[1] abbreviates: dose: 100.0 mg/kg/injection, schedule: Q01DX001 (ip), vehicle: saline.
Where [2] appears, read: dose: 200.0 mg/kg/injection, schedule: Q01DX001 (ip), vehicle: saline.
Setting [3] is: dose: 400.0 mg/kg/injection, schedule: Q01DX001 (ip), vehicle: saline.

The list shows only some results of the screen, not a fair sample: it gathers tests that were run many times, whatever their T/C, doses with no T/C, and many T/C values between a quarter and a half above the control. Other doses and runs of a compound stand elsewhere. T/C is the treated group as % of the vehicle group. Some entries give survivors of the animals treated and no T/C: the source files T/C as zero there, which appears to mark a toxic dose or a test without result, not a measured value. Some doses without a T/C left all or most animals alive at the check, yet need not have been tolerated: survival well below the control is almost never listed, so the zero probably covers shortened survival too. Survivors were counted at the toxicity check, usually on the fifth day, unless a day is given; later deaths do not show. Schedule codes are those of the source, taken here to give the interval after Q, in days (D) or hours (H), and the number of doses after X.

As for `CCN(CC[n+]1ccccc1)c1ccccc1` (tested in a mixture with another compound), the survivor count is reported as 0 of 4 under setting [1], 0 of 4 under setting [2] and 0 of 4 under setting [3].

Regarding `Oc1ccc(O)c(Cl)c1`, the survivor count is 0 of 4 under setting [2]; 1 of 3 (dose: 200.0 mg/kg/injection, schedule: Q04DX002 (ip), vehicle: saline); 0 of 3 (dose: 400.0 mg/kg/injection, schedule: Q01DX001 (ip), vehicle: Klucel (hydroxypropylcellulose) (HPC)); 0 of 4 under setting [3].

As to `C[As](C)Sc1ccnc(S[As](C)C)n1`, the survivor count was 3 of 6 (dose: 400.0 mg/kg/injection, schedule: Q01DX009 (ip), vehicle: saline with Tween-80) and 6 of 6 (dose: 400.0 mg/kg/injection, schedule: Q04DX003 (ip), vehicle: saline with Tween-80).

Take `Cc1ccc(S/C(=C/c2ccccc2)C(N)=O)cc1`: for the setting “dose: 100.0 mg/kg/injection, schedule: Q04DX003 (ip), vehicle: Klucel (hydroxypropylcellulose) (HPC)”, the survivor count was 6 of 6.

For `Oc1ccc(Nc2ccnc3cc(Cl)ccc23)cc1CN(CCCl)CCCl`, the survivor count runs as follows: (dose: 20.0 mg/kg/injection, schedule: Q01DX001 (ip), vehicle: saline) 4 of 4; (dose: 40.0 mg/kg/injection, schedule: Q01DX001 (ip), vehicle: saline) 1 of 4; (dose: 80.0 mg/kg/injection, schedule: Q01DX001 (ip), vehicle: saline) 0 of 4; under setting [1], 3 of 4; under setting [2], 0 of 4; under setting [3], 0 of 4.
